Test results from publication doi:10.1101/2024.04.16.589460.
These are yes or no findings as the source states them, for the method shown. In cells and extracts the contact can be indirect. Some binding calls cover weakened binding; strength is not graded here.

Protein sequences, listed by entry. Tags and fused reporters are not part of them.
UniProt P46937: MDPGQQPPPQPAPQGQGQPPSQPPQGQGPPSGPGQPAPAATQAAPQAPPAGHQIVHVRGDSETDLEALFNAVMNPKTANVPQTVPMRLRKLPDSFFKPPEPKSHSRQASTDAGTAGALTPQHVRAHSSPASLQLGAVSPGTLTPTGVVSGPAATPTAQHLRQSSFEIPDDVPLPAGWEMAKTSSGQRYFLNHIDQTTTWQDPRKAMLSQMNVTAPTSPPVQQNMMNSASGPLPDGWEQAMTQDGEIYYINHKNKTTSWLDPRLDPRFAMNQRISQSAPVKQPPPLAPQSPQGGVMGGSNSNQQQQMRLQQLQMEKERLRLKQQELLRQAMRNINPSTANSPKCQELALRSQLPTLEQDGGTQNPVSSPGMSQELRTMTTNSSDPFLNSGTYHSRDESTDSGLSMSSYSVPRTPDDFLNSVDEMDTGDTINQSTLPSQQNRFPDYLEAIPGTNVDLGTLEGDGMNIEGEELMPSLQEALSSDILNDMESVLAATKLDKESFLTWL

T1: SAM pointed domain-containing ETS transcriptional factor (SPDEF) (human (endogenous in SKBR3)) (UniProt O95238)
T1 sequence: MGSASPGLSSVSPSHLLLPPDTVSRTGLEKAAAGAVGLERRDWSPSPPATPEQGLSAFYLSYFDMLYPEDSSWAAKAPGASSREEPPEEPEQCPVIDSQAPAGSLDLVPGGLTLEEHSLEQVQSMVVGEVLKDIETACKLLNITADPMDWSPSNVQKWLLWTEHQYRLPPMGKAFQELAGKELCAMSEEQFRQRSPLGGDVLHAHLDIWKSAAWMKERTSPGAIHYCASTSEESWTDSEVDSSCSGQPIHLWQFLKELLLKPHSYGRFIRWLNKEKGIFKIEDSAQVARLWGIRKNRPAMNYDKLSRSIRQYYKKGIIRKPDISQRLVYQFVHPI

B1: TRPS1 (protein, UniProt Q9UHF7 1-1281)
chain: MVRKKNPPLRNVASEGEGQILEPIGTESKVSGKNKEFSADQMSENTDQSDAAELNHKEEHSLHVQDPSSSSKKDLKSAVLSEKAGFNYESPSKGGNFPSFPHDEVTDRNMLAFSSPAAGGVCEPLKSPQRAEADDPQDMACTPSGDSLETKEDQKMSPKATEETGQAQSGQANCQGLSPVSVASKNPQVPSDGGVRLNKSKTDLLVNDNPDPAPLSPELQDFKCNICGYGYYGNDPTDLIKHFRKYHLGLHNRTRQDAELDSKILALHNMVQFSHSKDFQKVNRSVFSGVLQDINSSRPVLLNGTYDVQVTSGGTFIGIGRKTPDCQGNTKYFRCKFCNFTYMGNSSTELEQHFLQTHPNKIKASLPSSEVAKPSEKNSNKSIPALQSSDSGDLGKWQDKITVKAGDDTPVGYSVPIKPLDSSRQNGTEATSYYWCKFCSFSCESSSSLKLLEHYGKQHGAVQSGGLNPELNDKLSRGSVINQNDLAKSSEGETMTKTDKSSSGAKKKDFSSKGAEDNMVTSYNCQFCDFRYSKSHGPDVIVVGPLLRHYQQLHNIHKCTIKHCPFCPRGLCSPEKHLGEITYPFACRKSNCSHCALLLLHLSPGAAGSSRVKHQCHQCSFTTPDVDVLLFHYESVHESQASDVKQEANHLQGSDGQQSVKESKEHSCTKCDFITQVEEEISRHYRRAHSCYKCRQCSFTAADTQSLLEHFNTVHCQEQDITTANGEEDGHAISTIKEEPKIDFRVYNLLTPDSKMGEPVSESVVKREKLEEKDGLKEKVWTESSSDDLRNVTWRGADILRGSPSYTQASLGLLTPVSGTQEQTKTLRDSPNVEAAHLARPIYGLAVETKGFLQGAPAGGEKSGALPQQYPASGENKSKDESQSLLRRRRGSGVFCANCLTTKTSLWRKNANGGYVCNACGLYQKLHSTPRPLNIIKQNNGEQIIRRRTRKRLNPEALQAEQLNKQQRGSNEEQVNGSPLERRSEDHLTESHQREIPLPSLSKYEAQGSLTKSHSAQQPVLVSQTLDIHKRMQPLHIQIKSPQESTGDPGNSSSVSEGKGSSERGSPIEKYMRPAKHPNYSPPGSPIEKYQYPLFGLPFVHNDFQSEADWLRFWSKYKLSVPGNPHYLSHVPGLPNPCQNYVPYPTFNLPPHFSAVGSDNDIPLDLAIKHSRPGPTANGASKEKTKAPPNVKNEGPLNVVKTEKVDRSTQDELSTKCVHCGIVFLDEVMYALHMSCHGDSGPFQCSICQHLCTDKYDFTTHIQRGLHRNNAQVEKNGKPKE
B2: Forkhead box protein A1 (FOXA1) (protein, UniProt P55317 1-472)
chain: MLGTVKMEGHETSDWNSYYADTQEAYSSVPVSNMNSGLGSMNSMNTYMTMNTMTTSGNMTPASFNMSYANPGLGAGLSPGAVAGMPGGSAGAMNSMTAAGVTAMGTALSPSGMGAMGAQQAASMNGLGPYAAAMNPCMSPMAYAPSNLGRSRAGGGGDAKTFKRSYPHAKPPYSYISLITMAIQQAPSKMLTLSEIYQWIMDLFPYYRQNQQRWQNSIRHSLSFNDCFVKVARSPDKPGKGSYWTLHPDSGNMFENGCYLRRQKRFKCEKQPGAGGGGGSGSGGSGAKGGPESRKDPSGASNPSADSPLHRGVHGKTGQLEGAPAPGPAASPQTLDHSGATATGGASELKTPASSTAPPISSGPGALASVPASHPAHGLAPHESQLHLKGDPHYSFNHPFSINNLMSSSEQQHKLDFKAYEQALQYSPYGSTLPASLPLGSASVTTRSPIEPSALEPAYYQGVYSRPVLNTS

Columns and labels:
[1] = target: YAP (human (endogenous in SKBR3)) (UniProt P46937); test: proximity ligation
[2] = target: T1, SAM pointed domain-containing ETS transcriptional factor (SPDEF) (human (endogenous in SKBR3)); test: proximity ligation

Binder	binding [1]	binding [2]
B1	binds	
B2		binds
